{
  "source": "the supplement of paper PMC8728848",
  "binders": {"B1": {"name": "Pbx2CASH domain (Cryptococcus neoformans) (protein)", "chain": "GIPGPNRLYRLSGPIIFTAADQEIATYGYPTGSERAVLRVEGRNTATAIQGDCRRCARVSVKNLVVDGNRKKLGRMRDFQLATGLVVLGGNEGQSIQNSWIKNPRGFTAIHIREGDKLQCSGARVEKNEIGPVGEEYDPEKDGDDPEMSPLGRPLADGVSIACRDSFIRDNTFRDNTDAAIVVYCSPGTLIHA"}},
  "experiment_in_all_cases": "glycan array binding signal (z-score within array); higher = stronger binding",
  "settings_in_all_cases": "glycan notation: IUPAC condensed, linker removed",
  "key": {"[1]": {"target": "Gal(b1-3)Gal", "how_it_was_run": "(§1)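 The Consortium for Functional Glycomics database supplied 3228 glycan arrays, of which those lacking an available protein sequence were dropped. The binding signal, a within-array Z-score, was averaged across arrays of the same protein sequence and across linkers. Negative scores can be read as non-binding.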"}, "[2]": {"target": "Gal(b1-3)Gal(b1-4)GlcNAc", "how_it_was_run": "as §1"}, "[3]": {"target": "Gal(b1-3)GalNAc", "how_it_was_run": "as §1"}, "[4]": {"target": "Gal(b1-3)GalNAc(a1-3)[Fuc(a1-2)]Gal(b1-4)Glc", "how_it_was_run": "as §1"}, "[5]": {"target": "Gal(b1-3)GalNAc(a1-3)[Fuc(a1-2)]Gal(b1-4)GlcNAc", "how_it_was_run": "as §1"}, "[6]": {"target": "Gal(b1-3)GalNAc(b1-3)Gal", "how_it_was_run": "as §1"}, "[7]": {"target": "Gal(b1-3)GalNAc(b1-3)Gal(a1-4)Gal(b1-4)Glc", "how_it_was_run": "as §1"}, "[8]": {"target": "Gal(b1-3)GalNAc(b1-4)Gal(b1-4)Glc", "how_it_was_run": "as §1"}, "[9]": {"target": "Gal(b1-3)GalNAc(b1-4)[Neu5Ac(a2-3)]Gal(b1-4)Glc", "how_it_was_run": "as §1"}, "[10]": {"target": "Gal(b1-3)GlcNAc", "how_it_was_run": "as §1"}, "[11]": {"target": "Gal(b1-3)GlcNAc(a1-3)Gal(b1-4)GlcNAc", "how_it_was_run": "as §1"}, "[12]": {"target": "Gal(b1-3)GlcNAc(a1-6)Gal(b1-4)GlcNAc", "how_it_was_run": "as §1"}, "[13]": {"target": "Gal(b1-3)GlcNAc(b1-2)Man", "how_it_was_run": "as §1"}, "[14]": {"target": "Gal(b1-3)GlcNAc(b1-2)Man(a1-3)[Gal(b1-3)GlcNAc(b1-2)Man(a1-6)]Man(b1-4)GlcNAc(b1-4)GlcNAc", "how_it_was_run": "as §1"}, "[15]": {"target": "Gal(b1-3)GlcNAc(b1-2)Man(a1-3)[Gal(b1-3)GlcNAc(b1-2)Man(a1-6)]Man(b1-4)GlcNAc(b1-4)[Fuc(a1-6)]GlcNAc", "how_it_was_run": "as §1"}, "[16]": {"target": "Gal(b1-3)GlcNAc(b1-2)Man(a1-3)[GlcNAc(b1-4)][Gal(b1-3)GlcNAc(b1-2)Man(a1-6)]Man(b1-4)GlcNAc(b1-4)GlcNAc", "how_it_was_run": "as §1"}, "[17]": {"target": "Gal(b1-3)GlcNAc(b1-2)[Gal(b1-3)GlcNAc(b1-6)]Man(a1-6)[Gal(b1-3)GlcNAc(b1-2)Man(a1-3)]Man(b1-4)GlcNAc(b1-4)GlcNAc", "how_it_was_run": "as §1"}, "[18]": {"target": "Gal(b1-3)GlcNAc(b1-3)Gal(b1-3)GlcNAc", "how_it_was_run": "as §1"}, "[19]": {"target": "Gal(b1-3)GlcNAc(b1-3)Gal(b1-4)Glc", "how_it_was_run": "as §1"}, "[20]": {"target": "Gal(b1-3)GlcNAc(b1-3)Gal(b1-4)GlcNAc", "how_it_was_run": "as §1"}, "[21]": {"target": "Gal(b1-3)GlcNAc(b1-3)Gal(b1-4)GlcNAc(b1-2)Man(a1-3)[Gal(b1-3)GlcNAc(b1-3)Gal(b1-4)GlcNAc(b1-2)Man(a1-6)]Man(b1-4)GlcNAc(b1-4)GlcNAc", "how_it_was_run": "as §1"}, "[22]": {"target": "Gal(b1-3)GlcNAc(b1-3)Gal(b1-4)GlcNAc(b1-2)[Gal(b1-3)GlcNAc(b1-3)Gal(b1-4)GlcNAc(b1-6)]Man(a1-6)[Gal(b1-3)GlcNAc(b1-3)Gal(b1-4)GlcNAc(b1-2)Man(a1-3)]Man(b1-4)GlcNAc(b1-4)[Fuc(a1-6)]GlcNAc", "how_it_was_run": "as §1"}, "[23]": {"target": "Gal(b1-3)GlcNAc(b1-3)Gal(b1-4)GlcNAc(b1-3)Gal(b1-4)GlcNAc(b1-2)[Gal(b1-3)GlcNAc(b1-3)Gal(b1-4)GlcNAc(b1-3)Gal(b1-4)GlcNAc(b1-6)]Man(a1-6)[Gal(b1-3)GlcNAc(b1-3)Gal(b1-4)GlcNAc(b1-3)Gal(b1-4)GlcNAc(b1-2)Man(a1-3)]Man(b1-4)GlcNAc(b1-4)[Fuc(a1-6)]GlcNAc", "how_it_was_run": "as §1"}, "[24]": {"target": "Gal(b1-3)GlcNAc(b1-3)Gal(b1-4)GlcNAc(b1-6)[Gal(b1-3)GlcNAc(b1-3)]Gal(b1-4)Glc", "how_it_was_run": "as §1"}, "[25]": {"target": "Gal(b1-3)GlcNAc(b1-3)Gal(b1-4)[Fuc(a1-3)]GlcNAc", "how_it_was_run": "as §1"}, "[26]": {"target": "Gal(b1-3)GlcNAc(b1-3)Gal(b1-4)[Fuc(a1-3)]GlcNAc(b1-6)[Gal(b1-3)GlcNAc(b1-3)]Gal(b1-4)Glc", "how_it_was_run": "as §1"}, "[27]": {"target": "Gal(b1-3)GlcNAc(b1-3)GalNAc", "how_it_was_run": "as §1"}, "[28]": {"target": "Gal(b1-3)GlcNAc(b1-6)Gal(b1-4)GlcNAc", "how_it_was_run": "as §1"}, "[29]": {"target": "Gal(b1-3)GlcNAc(b1-6)GalNAc", "how_it_was_run": "as §1"}, "[30]": {"target": "Gal(b1-3)GlcNAc(b1-6)[Gal(b1-3)]GalNAc", "how_it_was_run": "as §1"}, "[31]": {"target": "Gal(b1-3)GlcNAc6S", "how_it_was_run": "as §1"}, "[32]": {"target": "Gal(b1-3)[Fuc(a1-4)]GlcNAc", "how_it_was_run": "as §1"}, "[33]": {"target": "Gal(b1-3)[Fuc(a1-4)]GlcNAc(b1-2)Man", "how_it_was_run": "as §1"}, "[34]": {"target": "Gal(b1-3)[Fuc(a1-4)]GlcNAc(b1-2)Man(a1-3)[Gal(b1-3)[Fuc(a1-4)]GlcNAc(b1-2)Man(a1-6)]Man(b1-4)GlcNAc(b1-4)[Fuc(a1-6)]GlcNAc", "how_it_was_run": "as §1"}, "[35]": {"target": "Gal(b1-3)[Fuc(a1-4)]GlcNAc(b1-3)Gal(b1-3)[Fuc(a1-4)]GlcNAc", "how_it_was_run": "as §1"}, "[36]": {"target": "Gal(b1-3)[Fuc(a1-4)]GlcNAc(b1-3)Gal(b1-4)[Fuc(a1-3)]GlcNAc", "how_it_was_run": "as §1"}, "[37]": {"target": "Gal(b1-3)[Fuc(a1-4)]GlcNAc(b1-6)GalNAc", "how_it_was_run": "as §1"}, "[38]": {"target": "Gal(b1-3)[GlcNAc(b1-6)]GalNAc", "how_it_was_run": "as §1"}, "[39]": {"target": "Gal(b1-3)[Neu5Ac(a2-6)]GalNAc", "how_it_was_run": "as §1"}, "[40]": {"target": "Gal(b1-3)[Neu5Ac(a2-6)]GlcNAc(b1-4)Gal(b1-4)Glc", "how_it_was_run": "as §1"}, "[41]": {"target": "Gal(b1-3)[Neu5Ac(b2-6)]GalNAc", "how_it_was_run": "as §1"}, "[42]": {"target": "Gal(b1-4)Gal", "how_it_was_run": "as §1"}, "[43]": {"target": "Gal(b1-4)GalNAc(a1-3)[Fuc(a1-2)]Gal(b1-4)GlcNAc", "how_it_was_run": "as §1"}, "[44]": {"target": "Gal(b1-4)GalNAc(b1-3)[Fuc(a1-2)]Gal(b1-4)GlcNAc", "how_it_was_run": "as §1"}, "[45]": {"target": "Gal(b1-4)Glc", "how_it_was_run": "as §1"}},
  "note": "Some of the results follow.",
  "data": [
    {"binder": "B1", "values": [
      {"measurement": "glycan array binding signal (z-score)", "setting": "[1]", "result": -0.788},
      {"measurement": "glycan array binding signal (z-score)", "setting": "[2]", "result": -0.056},
      {"measurement": "glycan array binding signal (z-score)", "setting": "[3]", "result": 0.184},
      {"measurement": "glycan array binding signal (z-score)", "setting": "[4]", "result": -0.669},
      {"measurement": "glycan array binding signal (z-score)", "setting": "[5]", "result": -0.559},
      {"measurement": "glycan array binding signal (z-score)", "setting": "[6]", "result": -0.371},
      {"measurement": "glycan array binding signal (z-score)", "setting": "[7]", "result": -0.101},
      {"measurement": "glycan array binding signal (z-score)", "setting": "[8]", "result": -0.346},
      {"measurement": "glycan array binding signal (z-score)", "setting": "[9]", "result": -0.472},
      {"measurement": "glycan array binding signal (z-score)", "setting": "[10]", "result": -0.347},
      {"measurement": "glycan array binding signal (z-score)", "setting": "[11]", "result": -0.056},
      {"measurement": "glycan array binding signal (z-score)", "setting": "[12]", "result": -0.458},
      {"measurement": "glycan array binding signal (z-score)", "setting": "[13]", "result": -0.602},
      {"measurement": "glycan array binding signal (z-score)", "setting": "[14]", "result": -0.271},
      {"measurement": "glycan array binding signal (z-score)", "setting": "[15]", "result": -0.175},
      {"measurement": "glycan array binding signal (z-score)", "setting": "[16]", "result": -0.134},
      {"measurement": "glycan array binding signal (z-score)", "setting": "[17]", "result": 0.441},
      {"measurement": "glycan array binding signal (z-score)", "setting": "[18]", "result": -0.02},
      {"measurement": "glycan array binding signal (z-score)", "setting": "[19]", "result": -0.223},
      {"measurement": "glycan array binding signal (z-score)", "setting": "[20]", "result": -0.457},
      {"measurement": "glycan array binding signal (z-score)", "setting": "[21]", "result": 0.017},
      {"measurement": "glycan array binding signal (z-score)", "setting": "[22]", "result": 2.19},
      {"measurement": "glycan array binding signal (z-score)", "setting": "[23]", "result": 1.8},
      {"measurement": "glycan array binding signal (z-score)", "setting": "[24]", "result": -0.648},
      {"measurement": "glycan array binding signal (z-score)", "setting": "[25]", "result": -0.351},
      {"measurement": "glycan array binding signal (z-score)", "setting": "[26]", "result": -0.568},
      {"measurement": "glycan array binding signal (z-score)", "setting": "[27]", "result": 0.422},
      {"measurement": "glycan array binding signal (z-score)", "setting": "[28]", "result": -0.683},
      {"measurement": "glycan array binding signal (z-score)", "setting": "[29]", "result": 0.392},
      {"measurement": "glycan array binding signal (z-score)", "setting": "[30]", "result": 0.523},
      {"measurement": "glycan array binding signal (z-score)", "setting": "[31]", "result": 0.283},
      {"measurement": "glycan array binding signal (z-score)", "setting": "[32]", "result": -0.443},
      {"measurement": "glycan array binding signal (z-score)", "setting": "[33]", "result": 1.16},
      {"measurement": "glycan array binding signal (z-score)", "setting": "[34]", "result": -0.077},
      {"measurement": "glycan array binding signal (z-score)", "setting": "[35]", "result": -0.172},
      {"measurement": "glycan array binding signal (z-score)", "setting": "[36]", "result": -0.513},
      {"measurement": "glycan array binding signal (z-score)", "setting": "[37]", "result": 1.39},
      {"measurement": "glycan array binding signal (z-score)", "setting": "[38]", "result": -0.141},
      {"measurement": "glycan array binding signal (z-score)", "setting": "[39]", "result": -0.622},
      {"measurement": "glycan array binding signal (z-score)", "setting": "[40]", "result": -0.128},
      {"measurement": "glycan array binding signal (z-score)", "setting": "[41]", "result": -0.426},
      {"measurement": "glycan array binding signal (z-score)", "setting": "[42]", "result": 0.808},
      {"measurement": "glycan array binding signal (z-score)", "setting": "[43]", "result": -0.766},
      {"measurement": "glycan array binding signal (z-score)", "setting": "[44]", "result": -0.344},
      {"measurement": "glycan array binding signal (z-score)", "setting": "[45]", "result": -0.276}
    ]}
  ]
}
